From PubChem BioAssay AID328 (DTP/NCI, 2004) come the findings set out here.

This assay deals with BDF1 mice, P388 leukemia ip, median survival T/C. The assay is described as follows: NCI In Vivo Anticancer Drug Screen. Data for tumor model P388 Leukemia (intraperitoneal) in B6D2F1 (BDF1) mice. To be noted: T/C endpoint: median survival time, higher T/C = longer survival. A digest of the protocol: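 Each value expresses how treatment altered survival: treated-mouse outcome over vehicle-mouse outcome, both groups bearing the transplanted tumour.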

Setting [1] is: dose: 100.0 mg/kg/injection, schedule: Q04DX003 (ip), vehicle: saline with Tween-80.
The mark [2] stands for this setting: dose: 200.0 mg/kg/injection, schedule: Q04DX003 (ip), vehicle: saline with Tween-80.
[3] abbreviates: dose: 100.0 mg/kg/injection, schedule: Q01DX009 (ip), vehicle: saline with Tween-80.
The mark [4] stands for this setting: dose: 200.0 mg/kg/injection, schedule: Q01DX009 (ip), vehicle: other.
The mark [5] stands for this setting: dose: 400.0 mg/kg/injection, schedule: Q01DX009 (ip), vehicle: other.
Where [6] appears, read: dose: 50.0 mg/kg/injection, schedule: Q01DX009 (ip), vehicle: saline with Tween-80.
Setting [7] is: dose: 400.0 mg/kg/injection, schedule: Q04DX002 (ip), vehicle: saline with Tween-80.
Setting [8] is: dose: 400.0 mg/kg/injection, schedule: Q01DX009 (ip), vehicle: saline.
Setting [9] is: dose: 100.0 mg/kg/injection, schedule: Q01DX009 (ip), vehicle: Klucel (hydroxypropylcellulose) (HPC).
The mark [10] stands for this setting: dose: 200.0 mg/kg/injection, schedule: Q01DX009 (ip), vehicle: Klucel (hydroxypropylcellulose) (HPC).
[11] abbreviates: dose: 200.0 mg/kg/injection, schedule: Q04DX003 (ip), vehicle: Klucel (hydroxypropylcellulose) (HPC).
Setting [12] is: dose: 50.0 mg/kg/injection, schedule: Q01DX009 (ip), vehicle: Klucel (hydroxypropylcellulose) (HPC).

The list is a part of this screen's results and no random one: it is rich in T/C values a quarter to a half above the control, in often repeated tests (any T/C) and in doses without a T/C. Other doses and runs of a compound stand elsewhere. T/C gives the treated animals as a percentage of the vehicle group. Some entries give survivors of the animals treated and no T/C: the source holds a T/C of zero for them, seemingly a mark for toxic or unscored doses. Some survivor counts are full or nearly so, which does not show that the dose was tolerated: survival well below the control is almost never listed, so the zero probably covers shortened survival too. Counts of survivors are from the toxicity check (mostly the fifth day) where no day follows; animals may have died later. Schedule codes are those of the source, read here as Q, the interval in days (D) or hours (H), X, the number of doses. Where survival is the endpoint, the PubChem record calls one and a half times the control and up active, and a quarter to a half above the control has no call in these data; cut-offs in other NCI protocols can differ. Some T/C values carry the count of animals alive at the toxicity check (mostly the fifth day); where none is given, no animal had died by that day.

As for `c1cnc2c3c(ccc2c1)CN(C12CC4CC(CC(C4)C1)C2)CO3`, the T/C under setting [1] is 127 % of control. Besides, the survivor count under setting [2] is 4 of 6.
Regarding `CC(CO)(CI)[n+]1ccccc1` (centres undefined), the survivor count by setting is: under setting [3], 5 of 6; under setting [2], 1 of 6.
In the case of `NCCc1ccc(O)c(O)c1`, the T/C (dose: 75.0 mg/kg/injection, schedule: Q01DX009 (ip), vehicle: saline) was 138 % of control [5 of 6 alive]; the T/C (dose: 150.0 mg/kg/injection, schedule: Q01DX009 (ip), vehicle: saline) was 133 % of control [5 of 6 alive]; the T/C (dose: 300.0 mg/kg/injection, schedule: Q01DX009 (ip), vehicle: saline) is 139 % of control.
Consider `C1CCCCCC(NC2=NCCO2)CCCCC1`, for which the survivor count (dose: 12.5 mg/kg/injection, schedule: Q04DX003 (ip), vehicle: saline with Tween-80) is reported as 6 of 6.
`CC(=O)OCC(=O)[C@@]1(O)CC[C@H]2[C@@H]3C[C@H](F)C4=CC(=O)CC[C@]4(C)[C@H]3C(=O)C[C@@]21C`: the survivor count under setting [4] was 6 of 6 and the survivor count under setting [5] is 6 of 6.
For `N#CCCSC(=S)C1CCCC1=N` (centres undefined), the T/C under setting [6] was 128 % of control.
As for `CCOC(=O)/C(C#N)=C/N=c1ccccn1C`, the survivor count by setting is: (dose: 100.0 mg/kg/injection, schedule: Q04DX002 (ip), vehicle: saline with Tween-80) 0 of 6; (dose: 200.0 mg/kg/injection, schedule: Q04DX002 (ip), vehicle: saline with Tween-80) 0 of 6; under setting [7], 0 of 6.
As to `C[n+]1ccc(Nc2ccc(NC(=O)c3ccc(Nc4cc[n+](C)c5ccc([N+](=O)[O-])cc45)cc3[N+](=O)[O-])cc2)cc1`, the T/C is 145 % of control [5 of 6 alive] (dose: 100.0 mg/kg/injection, schedule: Q04DX003 (ip), vehicle: saline, evaluated on day 20) and 138 % of control (dose: 100.0 mg/kg/injection, schedule: Q04DX003 (ip), vehicle: saline, evaluated on day 32).
Turning to `CCC1OC(=O)CC(O)C(C)C(OC2OC(C)C(O)C(N(C)C)C2O)C(CC=O)CC(C)C(=O)/C=C/C2(C)OC2C1C` (centres undefined), the T/C runs as follows: (dose: 37.5 mg/kg/injection, schedule: Q01DX009 (ip), vehicle: Klucel (hydroxypropylcellulose) (HPC)) 134 % of control; (dose: 75.0 mg/kg/injection, schedule: Q01DX009 (ip), vehicle: Klucel (hydroxypropylcellulose) (HPC)) 133 % of control.
Consider `C[C@H]1C(=O)O[C@@H]2CCN3CC=C(COC(=O)[C@](C)(O)[C@@]1(C)O)[C@H]23`, for which the T/C is 133 % of control (dose: 25.0 mg/kg/injection, schedule: Q01DX009 (ip), vehicle: saline) and 127 % of control (dose: 50.0 mg/kg/injection, schedule: Q01DX009 (ip), vehicle: saline).
As for `CC(=O)Nc1ccc(C(=O)O)c([N+](=O)[O-])c1`, the T/C (dose: 200.0 mg/kg/injection, schedule: Q01DX009 (ip), vehicle: saline) was 125 % of control. For the same compound, the survivor count under setting [8] is on record as 4 of 6.
As for `CCCCn1cnc2c(SC)nc(N)nc21`, the T/C under setting [9] is 125 % of control. In addition, the survivor count is 3 of 6 under setting [10] and 0 of 6 (dose: 400.0 mg/kg/injection, schedule: Q01DX009 (ip), vehicle: Klucel (hydroxypropylcellulose) (HPC)).
`COc1cccc2c1C(=O)c1c(O)c3c(c(O)c1C2=O)C[C@@](O)(C(C)=O)C[C@@H]3OC(=O)CCN`: the T/C by setting is: (dose: 3.12 mg/kg/injection, schedule: Q01DX009 (ip), vehicle: water) 125 % of control; (dose: 6.25 mg/kg/injection, schedule: Q01DX009 (ip), vehicle: water) 127 % of control; (dose: 25.0 mg/kg/injection, schedule: Q01DX009 (ip), vehicle: water) 133 % of control [5 of 6 alive].
In the case of `CCOC(=O)c1cnc2c(OC)cccc2c1Cl`, under “dose: 32.0 mg/kg/injection, schedule: Q01DX009 (ip), vehicle: saline”, the survivor count was 6 of 6.
Take `CNC(=S)N/N=C(\C)c1ccccn1`: the survivor count under setting [6] was 2 of 6 on day 9 and the survivor count under setting [3] is listed as 0 of 6 on day 9.
For `Cc1ccc(C2NC(=S)N3C(c4ccc(C)cc4)NC(=S)N23)cc1` (centres undefined), the T/C (dose: 265.0 mg/kg/injection, schedule: Q01DX009 (ip), vehicle: saline) was 129 % of control.
As for `Nc1ccc(O)cc1`, the survivor count (dose: 600.0 mg/kg/injection, schedule: Q01DX009 (ip), vehicle: saline sonified) is 1 of 6.
For `Clc1ccc(NC2=NCCN=C(Nc3ccc(Cl)cc3)SS2)cc1`, the survivor count under setting [10] is 6 of 6.
For the compound `CC(Cl)CN(Cc1cc(O)c(CN(CC(C)Cl)CC(C)Cl)cc1O)CC(C)Cl` (centres undefined), the T/C is, setting by setting: under setting [11], 131 % of control; (dose: 400.0 mg/kg/injection, schedule: Q04DX003 (ip), vehicle: Klucel (hydroxypropylcellulose) (HPC)) 137 % of control.
With `CNC(C)(C)CO`, the survivor count under setting [8] is given as 1 of 6.
In the case of `O=[N+]([O-])c1cc([N+](=O)[O-])c2ccccc2c1NS(=O)(=O)c1ccc(Cl)c(Cl)c1`, the survivor count (dose: 200.0 mg/kg/injection, schedule: Q01DX009 (ip), vehicle: saline with Tween-80) is listed as 1 of 6.
On to `CCCCCCC/C=N/N=C/CCCCCCC`, for which the T/C under setting [4] is 127 % of control; the T/C (dose: 266.0 mg/kg/injection, schedule: Q01DX009 (ip), vehicle: other) is 127 % of control [5 of 6 alive]; the T/C under setting [5] is 127 % of control. The survivor count (dose: 400.0 mg/kg/injection, schedule: Q04DX003 (ip), vehicle: other) is 6 of 6.
In the case of `O=Ic1ccccc1`, the survivor count reads like this: under setting [12], 5 of 6; under setting [9], 2 of 6; under setting [11], 0 of 6.
With `CC(=O)OC1CCC2(C)C(CC(=O)C(C)C23CCC2(C=COC2)O3)C1(C)C` (centres undefined), the T/C under setting [6] is 143 % of control.
In the case of `Cc1cc(NCCCCNCCCNc2cc(C)nc3cc(N)ccc23)c2ccc(N)cc2n1`, the T/C (dose: 6.25 mg/kg/injection, schedule: Q01DX009 (ip), vehicle: other) is 128 % of control. For the same compound, the survivor count by setting is: (dose: 25.0 mg/kg/injection, schedule: Q01DX009 (ip), vehicle: other) 3 of 6; (dose: 50.0 mg/kg/injection, schedule: Q01DX009 (ip), vehicle: other) 0 of 6; (dose: 100.0 mg/kg/injection, schedule: Q01DX009 (ip), vehicle: other) 0 of 6.
Consider `COC(=O)CCCC1=NC2=CC=CC3=NC(C)=NC(=N1)N23`, for which, under setting [6], the T/C is 126 % of control.
On to `O=C(O)CCNCc1ccccc1`, for which the survivor count under setting [8] is recorded as 6 of 6.
Regarding `Cc1c(C#N)c2n(c1C)CCN2`, the survivor count is reported as 6 of 6 under setting [12] and 6 of 6 under setting [9].
Consider `O=C(O)C(O)C(=O)O`, for which the survivor count is reported as 4 of 6 (dose: 200.0 mg/kg/injection, schedule: Q04DX003 (ip), vehicle: saline) and 1 of 6 (dose: 400.0 mg/kg/injection, schedule: Q04DX003 (ip), vehicle: saline).
With `CCC1(C)CCC2=C(CCC3C(C)(C(=O)O)CCCC23C)C1` (centres undefined), under setting [1], the survivor count is reported as 6 of 6.
As to `COc1ccc(O)c(/C=C/c2cc[n+](C)cc2)c1`, the survivor count under setting [7] is reported as 4 of 6.
For `COc1ccccc1-n1c(=O)c(N=Nc2ccccc2)c(O)n(-c2ccccc2C)c1=S`, the survivor count (dose: 400.0 mg/kg/injection, schedule: Q01DX001 (ip), vehicle: saline with Tween-80) is reported as 2 of 6.
Turning to `C[C@]12CC[C@H]3[C@@H](CC[C@H]4N(CCCl)CCC[C@]34C)[C@@H]1CC[C@@H]2O`, the T/C (dose: 50.0 mg/kg/injection, schedule: Q01DX001 (ip), vehicle: saline) is 126 % of control. Further, the survivor count (dose: 100.0 mg/kg/injection, schedule: Q01DX001 (ip), vehicle: saline) is given as 0 of 6.
As for `O=I(=O)c1ccccc1`, the T/C (dose: 25.0 mg/kg/injection, schedule: Q01DX009 (ip), vehicle: saline with Tween-80) is 140 % of control. Also, the survivor count under setting [9] is given as 6 of 6 and the survivor count under setting [10] was 1 of 6.
